Measurements: the supplement of paper PMC10849652
The other results are listed elsewhere or left out.

By UniProt entry, the sequences of proteins in these tests, tags left out. Where a name states a change or a piece, a line headed by the entry shows the natural chain unless it says otherwise.
UniProt Q9Y450, whole entry, looked up: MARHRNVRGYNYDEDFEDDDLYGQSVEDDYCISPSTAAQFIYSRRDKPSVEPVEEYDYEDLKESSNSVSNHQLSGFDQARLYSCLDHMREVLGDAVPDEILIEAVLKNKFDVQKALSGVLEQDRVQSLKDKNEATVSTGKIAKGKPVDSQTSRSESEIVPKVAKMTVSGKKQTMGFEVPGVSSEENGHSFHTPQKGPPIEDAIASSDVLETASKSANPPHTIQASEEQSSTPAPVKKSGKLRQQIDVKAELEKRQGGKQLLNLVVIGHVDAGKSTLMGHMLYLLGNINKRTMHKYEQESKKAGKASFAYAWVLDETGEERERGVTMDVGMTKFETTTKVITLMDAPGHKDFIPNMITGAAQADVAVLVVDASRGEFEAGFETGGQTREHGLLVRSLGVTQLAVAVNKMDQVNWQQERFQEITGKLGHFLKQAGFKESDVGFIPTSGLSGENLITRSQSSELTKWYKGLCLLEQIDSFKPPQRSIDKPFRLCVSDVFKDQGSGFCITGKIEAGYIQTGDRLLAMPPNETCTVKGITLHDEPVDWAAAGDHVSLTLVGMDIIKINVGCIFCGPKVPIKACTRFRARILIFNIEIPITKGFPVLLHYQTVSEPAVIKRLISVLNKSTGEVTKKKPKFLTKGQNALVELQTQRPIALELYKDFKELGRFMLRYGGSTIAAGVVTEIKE
UniProt Q9UJ83: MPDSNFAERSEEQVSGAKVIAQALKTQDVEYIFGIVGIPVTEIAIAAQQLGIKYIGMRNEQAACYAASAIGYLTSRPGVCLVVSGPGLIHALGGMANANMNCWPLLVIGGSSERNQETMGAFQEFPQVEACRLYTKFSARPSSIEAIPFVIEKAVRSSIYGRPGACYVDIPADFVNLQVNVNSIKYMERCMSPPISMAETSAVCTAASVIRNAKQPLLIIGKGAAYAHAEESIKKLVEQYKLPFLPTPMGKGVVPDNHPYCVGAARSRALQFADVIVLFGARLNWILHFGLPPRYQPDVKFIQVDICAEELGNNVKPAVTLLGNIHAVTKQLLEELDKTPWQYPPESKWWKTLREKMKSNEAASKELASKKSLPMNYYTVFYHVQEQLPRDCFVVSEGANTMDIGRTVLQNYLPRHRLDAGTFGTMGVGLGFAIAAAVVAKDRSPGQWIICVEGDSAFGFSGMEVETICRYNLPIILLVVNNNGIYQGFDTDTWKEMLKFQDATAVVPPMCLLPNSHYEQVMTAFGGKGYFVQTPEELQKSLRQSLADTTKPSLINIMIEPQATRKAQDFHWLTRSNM
UniProt P51858: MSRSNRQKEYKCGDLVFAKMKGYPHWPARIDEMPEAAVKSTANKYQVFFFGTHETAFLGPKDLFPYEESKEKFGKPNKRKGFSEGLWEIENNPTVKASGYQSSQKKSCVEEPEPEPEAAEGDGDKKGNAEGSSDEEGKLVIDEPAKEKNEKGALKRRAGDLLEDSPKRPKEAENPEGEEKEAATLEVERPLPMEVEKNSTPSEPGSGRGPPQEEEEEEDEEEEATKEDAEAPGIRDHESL
UniProt Q5GLZ8: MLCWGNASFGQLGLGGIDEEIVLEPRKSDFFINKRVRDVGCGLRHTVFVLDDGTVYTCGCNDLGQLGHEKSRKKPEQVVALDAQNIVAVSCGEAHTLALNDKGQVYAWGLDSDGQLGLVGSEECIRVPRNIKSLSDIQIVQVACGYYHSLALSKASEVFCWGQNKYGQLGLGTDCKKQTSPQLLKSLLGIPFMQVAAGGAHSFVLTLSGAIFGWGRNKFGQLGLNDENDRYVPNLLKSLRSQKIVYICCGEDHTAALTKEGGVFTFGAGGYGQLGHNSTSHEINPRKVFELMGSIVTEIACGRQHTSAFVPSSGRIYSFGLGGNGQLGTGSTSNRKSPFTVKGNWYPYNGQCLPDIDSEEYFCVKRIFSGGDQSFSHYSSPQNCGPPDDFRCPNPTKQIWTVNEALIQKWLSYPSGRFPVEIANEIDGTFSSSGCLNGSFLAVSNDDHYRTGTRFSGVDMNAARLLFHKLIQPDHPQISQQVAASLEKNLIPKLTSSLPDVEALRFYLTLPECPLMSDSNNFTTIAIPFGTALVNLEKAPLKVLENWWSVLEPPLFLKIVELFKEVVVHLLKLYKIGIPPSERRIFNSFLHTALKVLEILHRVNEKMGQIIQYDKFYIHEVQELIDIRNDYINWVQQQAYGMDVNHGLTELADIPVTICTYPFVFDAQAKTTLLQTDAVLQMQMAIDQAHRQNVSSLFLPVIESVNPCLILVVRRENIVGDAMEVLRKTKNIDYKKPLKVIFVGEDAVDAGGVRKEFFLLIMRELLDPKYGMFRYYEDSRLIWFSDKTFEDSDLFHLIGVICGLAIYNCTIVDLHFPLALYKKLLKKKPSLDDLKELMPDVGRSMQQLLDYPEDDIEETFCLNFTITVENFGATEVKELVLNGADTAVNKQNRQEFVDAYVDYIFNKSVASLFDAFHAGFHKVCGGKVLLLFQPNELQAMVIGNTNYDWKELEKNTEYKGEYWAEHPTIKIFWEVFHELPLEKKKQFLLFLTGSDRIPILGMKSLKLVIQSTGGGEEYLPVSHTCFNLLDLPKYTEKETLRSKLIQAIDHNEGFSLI
UniProt P02042: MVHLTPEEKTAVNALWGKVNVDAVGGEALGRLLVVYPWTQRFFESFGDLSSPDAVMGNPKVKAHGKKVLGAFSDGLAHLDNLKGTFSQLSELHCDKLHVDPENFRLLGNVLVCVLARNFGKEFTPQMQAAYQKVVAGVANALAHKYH
UniProt Q8TDG4: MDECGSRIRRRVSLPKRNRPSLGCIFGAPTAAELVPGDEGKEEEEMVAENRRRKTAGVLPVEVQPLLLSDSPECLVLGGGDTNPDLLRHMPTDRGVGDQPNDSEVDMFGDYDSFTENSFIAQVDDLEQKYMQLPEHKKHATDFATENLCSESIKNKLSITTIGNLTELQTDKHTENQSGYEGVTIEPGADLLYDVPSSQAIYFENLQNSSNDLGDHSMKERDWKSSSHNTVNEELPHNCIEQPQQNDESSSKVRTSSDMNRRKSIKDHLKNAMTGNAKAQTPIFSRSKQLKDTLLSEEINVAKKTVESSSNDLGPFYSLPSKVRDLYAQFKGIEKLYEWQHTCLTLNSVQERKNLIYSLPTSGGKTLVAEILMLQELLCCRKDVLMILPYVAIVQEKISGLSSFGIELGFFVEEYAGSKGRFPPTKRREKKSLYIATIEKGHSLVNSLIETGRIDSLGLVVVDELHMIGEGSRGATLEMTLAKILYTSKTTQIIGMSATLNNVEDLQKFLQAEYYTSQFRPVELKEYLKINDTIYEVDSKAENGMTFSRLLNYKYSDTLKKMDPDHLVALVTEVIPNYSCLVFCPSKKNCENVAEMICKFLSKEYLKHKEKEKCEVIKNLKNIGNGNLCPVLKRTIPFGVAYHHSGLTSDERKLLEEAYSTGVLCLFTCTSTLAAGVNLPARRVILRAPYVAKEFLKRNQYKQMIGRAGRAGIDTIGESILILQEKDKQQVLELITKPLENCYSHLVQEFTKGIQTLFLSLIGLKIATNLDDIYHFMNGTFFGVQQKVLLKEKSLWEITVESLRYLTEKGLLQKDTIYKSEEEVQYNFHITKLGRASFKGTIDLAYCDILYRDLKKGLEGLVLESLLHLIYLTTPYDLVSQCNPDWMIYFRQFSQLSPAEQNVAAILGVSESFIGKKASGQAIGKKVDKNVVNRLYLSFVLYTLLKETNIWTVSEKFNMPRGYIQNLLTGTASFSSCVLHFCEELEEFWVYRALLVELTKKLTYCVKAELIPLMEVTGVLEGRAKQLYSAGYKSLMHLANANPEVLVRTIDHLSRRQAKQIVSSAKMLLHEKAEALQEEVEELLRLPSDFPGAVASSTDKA
UniProt Q00403, whole entry, looked up: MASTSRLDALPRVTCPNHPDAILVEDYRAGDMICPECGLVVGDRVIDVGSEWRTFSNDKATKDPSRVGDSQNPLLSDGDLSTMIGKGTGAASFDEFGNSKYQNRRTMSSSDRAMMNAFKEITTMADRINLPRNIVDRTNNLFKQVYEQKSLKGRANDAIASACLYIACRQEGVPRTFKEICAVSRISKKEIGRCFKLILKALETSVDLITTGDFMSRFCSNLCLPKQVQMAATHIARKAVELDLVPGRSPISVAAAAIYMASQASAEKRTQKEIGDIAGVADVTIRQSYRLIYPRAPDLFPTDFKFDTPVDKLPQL
UniProt Q6PII5: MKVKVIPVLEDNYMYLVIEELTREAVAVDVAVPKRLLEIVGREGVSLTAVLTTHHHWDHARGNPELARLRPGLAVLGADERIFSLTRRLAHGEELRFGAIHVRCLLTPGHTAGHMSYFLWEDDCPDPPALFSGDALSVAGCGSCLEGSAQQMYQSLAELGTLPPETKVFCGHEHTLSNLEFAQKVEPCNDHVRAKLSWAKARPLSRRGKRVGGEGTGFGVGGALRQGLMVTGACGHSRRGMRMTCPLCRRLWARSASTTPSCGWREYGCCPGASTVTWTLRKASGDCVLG
UniProt Q9BX10: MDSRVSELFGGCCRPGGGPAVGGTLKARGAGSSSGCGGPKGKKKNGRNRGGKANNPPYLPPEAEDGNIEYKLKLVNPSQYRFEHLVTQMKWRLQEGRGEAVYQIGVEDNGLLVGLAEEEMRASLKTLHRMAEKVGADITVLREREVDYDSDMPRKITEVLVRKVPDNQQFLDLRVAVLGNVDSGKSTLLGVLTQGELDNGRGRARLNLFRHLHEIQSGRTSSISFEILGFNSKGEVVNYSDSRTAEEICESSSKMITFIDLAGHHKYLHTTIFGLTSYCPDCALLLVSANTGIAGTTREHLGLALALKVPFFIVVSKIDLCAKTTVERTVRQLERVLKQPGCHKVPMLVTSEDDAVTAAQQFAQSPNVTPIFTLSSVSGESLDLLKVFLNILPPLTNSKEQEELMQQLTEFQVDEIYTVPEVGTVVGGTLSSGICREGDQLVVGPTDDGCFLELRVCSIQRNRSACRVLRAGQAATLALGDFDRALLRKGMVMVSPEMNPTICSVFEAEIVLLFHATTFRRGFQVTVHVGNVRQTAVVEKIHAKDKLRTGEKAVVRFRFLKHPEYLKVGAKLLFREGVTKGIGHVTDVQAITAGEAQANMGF
UniProt P53701: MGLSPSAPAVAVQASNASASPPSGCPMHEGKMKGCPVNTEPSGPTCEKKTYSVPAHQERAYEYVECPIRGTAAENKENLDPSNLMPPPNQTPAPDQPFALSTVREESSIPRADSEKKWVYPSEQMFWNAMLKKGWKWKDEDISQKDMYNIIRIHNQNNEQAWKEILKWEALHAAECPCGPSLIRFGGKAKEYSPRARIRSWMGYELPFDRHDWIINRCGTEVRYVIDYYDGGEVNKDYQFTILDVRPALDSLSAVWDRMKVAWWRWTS
UniProt Q96CS2: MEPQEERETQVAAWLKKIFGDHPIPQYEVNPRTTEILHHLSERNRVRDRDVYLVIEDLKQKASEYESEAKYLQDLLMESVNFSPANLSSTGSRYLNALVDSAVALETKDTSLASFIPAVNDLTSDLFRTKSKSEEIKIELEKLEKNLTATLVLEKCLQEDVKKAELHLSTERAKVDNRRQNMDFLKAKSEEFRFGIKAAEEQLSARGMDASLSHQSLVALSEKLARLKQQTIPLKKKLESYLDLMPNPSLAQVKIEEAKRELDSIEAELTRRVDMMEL
UniProt Q7Z4Q2: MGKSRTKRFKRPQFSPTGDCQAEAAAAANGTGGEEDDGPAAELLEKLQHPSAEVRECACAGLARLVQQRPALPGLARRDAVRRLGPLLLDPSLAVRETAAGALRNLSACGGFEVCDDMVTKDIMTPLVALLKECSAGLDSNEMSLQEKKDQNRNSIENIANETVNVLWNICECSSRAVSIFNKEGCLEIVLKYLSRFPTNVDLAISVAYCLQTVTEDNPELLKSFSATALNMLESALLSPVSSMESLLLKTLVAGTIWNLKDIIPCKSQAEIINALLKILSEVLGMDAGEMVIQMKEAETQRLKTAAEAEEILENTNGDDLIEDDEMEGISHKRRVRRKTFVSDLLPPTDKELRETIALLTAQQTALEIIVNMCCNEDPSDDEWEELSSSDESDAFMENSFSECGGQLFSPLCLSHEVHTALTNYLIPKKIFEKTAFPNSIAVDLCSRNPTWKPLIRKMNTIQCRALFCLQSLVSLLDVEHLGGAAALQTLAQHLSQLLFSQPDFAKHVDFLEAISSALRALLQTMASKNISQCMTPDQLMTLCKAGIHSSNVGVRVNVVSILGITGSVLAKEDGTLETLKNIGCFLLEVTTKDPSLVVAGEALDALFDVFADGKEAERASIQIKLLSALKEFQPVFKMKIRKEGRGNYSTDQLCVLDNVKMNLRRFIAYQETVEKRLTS

Key:
Test in all cases: log2 fold change, soluble protein after heating vs DMSO (PISA); higher = thermal stabilisation; K562 cells, 10 uM, 30 min; active = over 0.2 and 3.5 SD of the protein, either way, in both replicates (recomputed)
[1] = compound: CS(=O)(=O)c1ccc(-c2cnc(N)c(C(=O)Nc3ccccc3)n2)cc1
How it was run: (§1)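 K562 cells (2×10^6 cells/mL) were treated with 10 μM compound for 30 min, and aliquots were heated for 3 min over 48°C-58°C. Pooled aliquots were extracted in PBS with 0.5% NP-40 at 4°C, and the supernatant after 21,000xg for 90 min was measured by TMTpro 16plex LC-MS/MS with channel sums equalised. Reported thermal stability, relative to control samples and from duplicates, is a log2 fold change.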

[2] = compound: C[C@@H](Oc1cc(-c2cnn(C3CCNCC3)c2)cnc1N)c1c(Cl)ccc(F)c1Cl [crizotinib]
How it was run: as §1

[3] = compound: C[C@@H]1COCCN1C2=NC(=NC(=C2)C3(CC3)S(=O)(=O)C)C4=C5C=CNC5=CC=C4
How it was run: as §1

[4] = compound: C[C@H](C1=CC=C(C=C1)C(=O)NC2=C3C=CNC3=NC=C2)N
How it was run: as §1

[5] = compound: C[C@H](Nc1ncnc2nc[nH]c12)c1cc2cccc(Cl)c2c(=O)n1-c1ccccc1 [duvelisib]
How it was run: as §1

[6] = compound: Cc1cc(Nc2cc(CN3CCOCC3)c3nc(C)c(Cc4ccc(Cl)cc4F)n3n2)n[nH]1 [gandotinib]
How it was run: as §1

[7] = compound: Cc1cc(Nc2cc(N3CCN(C)CC3)nc(Sc3ccc(NC(=O)C4CC4)cc3)n2)n[nH]1 [tozasertib]
How it was run: as §1

[8] = compound: Cc1cc(SCc2sc(-c3ccc(C(F)(F)F)cc3)nc2C)ccc1OCC(=O)O
How it was run: as §1

[9] = compound: Cc1ccc(-n2nc(C(C)(C)C)cc2NC(=O)Nc2ccc(OCCN3CCOCC3)c3ccccc23)cc1 [doramapimod]
How it was run: as §1

[10] = compound: Cc1ccc(C(=O)N(CCCN)[C@@H](c2nc3cc(Cl)ccc3c(=O)n2Cc2ccccc2)C(C)C)cc1 [ispinesib]
How it was run: as §1

[11] = compound: Cc1ccc(NC(=O)c2ccc(CN3CC[C@H](N(C)C)C3)c(C(F)(F)F)c2)cc1Nc1nccc(-c2cncnc2)n1 [bafetinib]
How it was run: as §1

[12] = compound: Cc1cccc(CC(=O)N2CCc3c2ccc(-c2cn(C)c4ncnc(N)c24)c3F)n1
How it was run: as §1

[13] = compound: Cc1cn(-c2cc(NC(=O)c3ccc(C)c(Nc4nccc(-c5cccnc5)n4)c3)cc(C(F)(F)F)c2)cn1 [nilotinib]
How it was run: as §1

[14] = compound: Cc1nc(Nc2n[nH]c3c2CN(C(=O)N[C@H](CN(C)C)c2ccccc2)C3(C)C)c2sccc2n1
How it was run: as §1

[15] = compound: Cc1nc(Nc2ncc(C(=O)Nc3c(C)cccc3Cl)s2)cc(N2CCN(CCO)CC2)n1 [dasatinib]
How it was run: as §1

[16] = compound: Cc1ncc(-c2ccnc(Nc3ccc(S(C)(=O)=O)cc3)n2)n1C(C)C
How it was run: as §1

[17] = compound: Cn1cc(-c2ccc3c(c2)CCN3C(=O)Cc2cccc(C(F)(F)F)c2)c2c(N)ncnc21
How it was run: as §1

[18] = compound: Cn1cc(-c2ccc3nnc(C(F)(F)c4ccc5ncccc5c4)n3n2)cn1
How it was run: as §1

[19] = compound: Cn1cncc1[C@@](N)(c1ccc(Cl)cc1)c1ccc2c(c1)c(-c1cccc(Cl)c1)cc(=O)n2C [tipifarnib]
How it was run: as §1

[20] = compound: FC(F)(F)c1ccc(/C=C/c2nc(COc3ccc(CCCCn4ccnn4)cc3)co2)cc1 [mubritinib]
How it was run: as §1

Target	log2 fold change [1]	log2 fold change [2]	log2 fold change [3]	log2 fold change [4]	log2 fold change [5]	log2 fold change [6]	log2 fold change [7]	log2 fold change [8]	log2 fold change [9]	log2 fold change [10]	log2 fold change [11]	log2 fold change [12]	log2 fold change [13]	log2 fold change [14]	log2 fold change [15]	log2 fold change [16]	log2 fold change [17]	log2 fold change [18]	log2 fold change [19]	log2 fold change [20]
HBS1L (UniProt Q9Y450)	inactive: 0.066	inactive: -0.074	inactive: -0.007	inactive: -0.029	inactive: 0.009	inactive: -0.038	inactive: -0.011	inactive: 0.014	inactive: -0.017	inactive: 0.007	inactive: 0.023	inactive: 0.026	inactive: -0.003	inactive: 0.034	inactive: -0.038	inactive: 0.016	inactive: 0.027	inactive: 0.025	inactive: -0.088	inactive: 0.023
HACL1 (UniProt Q9UJ83)	inactive: -0.023	inactive: 0.012	inactive: 0.028	inactive: -0.055	inactive: -0.02	inactive: -0.008	inactive: 0.001	inactive: -0.046	inactive: 0.012	inactive: 0.025	inactive: 0.024	inactive: 0.018	inactive: -0.025	inactive: 0.021	inactive: 0.013	inactive: -0.028	inactive: 0.031	inactive: -0.027	inactive: -0.011	inactive: 0.028
HDGF (UniProt P51858)	inactive: 0.026	inactive: -0.007	inactive: -0.01	inactive: -0.031	inactive: -0.009	inactive: -0.023	inactive: -0.018	inactive: -0.064	inactive: -0.041	inactive: -0.031	inactive: -0.079	inactive: -0.008	inactive: -0.025	inactive: -0.058	inactive: -0.008	inactive: 0	inactive: 0.017	inactive: -0.017	inactive: -0.042	inactive: 0.022
HERC4 (UniProt Q5GLZ8)	inactive: 0.033	inactive: -0.049	inactive: 0.086	inactive: -0.008	inactive: 0	inactive: -0.024	inactive: -0.008	inactive: 0.006	inactive: 0.017	inactive: 0.008	inactive: -0.059	inactive: -0.014	inactive: -0.04	inactive: -0.008	inactive: -0.012	inactive: -0.016	inactive: 0.057	inactive: -0.02	inactive: -0.033	inactive: 0.039
HBD (UniProt P02042)	inactive: -0.043	inactive: 0.153	inactive: 0.12	inactive: 0.007	inactive: 0.117	inactive: 0.327	inactive: 0.158	inactive: -0.023	inactive: -0.095	inactive: 0.249	inactive: -0.039	inactive: -0.013	inactive: 0.034	inactive: 0.006	inactive: 0.054	inactive: -0.015	inactive: 0.161	inactive: 0.203	inactive: -0.058	inactive: -0.017
HELQ (UniProt Q8TDG4)	inactive: -0.112	inactive: -0.003	inactive: -0.065	inactive: 0.077	inactive: 0.105	inactive: -0.003	inactive: -0.116	inactive: -0.071	inactive: 0.007	inactive: 0.033	inactive: -0.038	inactive: -0.164	inactive: 0.263	inactive: -0.06	inactive: 0.086	inactive: -0.042	inactive: -0.107	inactive: -0.168	inactive: -0.066	inactive: 0.132
HELB (UniProt Q8NG08)	inactive: 0.041	inactive: -0.093	inactive: 0.027	inactive: -0.015	inactive: 0.021	inactive: -0.045	inactive: 0.11	inactive: -0.037	inactive: 0.005	inactive: 0.025	inactive: -0.03	inactive: -0.025	inactive: 0.026	inactive: 0.039	inactive: 0.007	inactive: -0.018	inactive: -0.011	inactive: -0.013	inactive: -0.082	inactive: 0.048
GTF2B (UniProt Q00403)	inactive: -0.007	inactive: -0.044	inactive: 0.115	inactive: 0.001	–	inactive: -0.146	–	inactive: 0.127	inactive: -0.044	inactive: -0.091	inactive: -0.005	inactive: 0.139	inactive: -0.134	inactive: -0.13	inactive: -0.247	inactive: 0.006	inactive: 0.031	inactive: 0.102	inactive: -0.082	inactive: 0.007
HAGHL isoform 2 (UniProt Q6PII5)	inactive: -0.117	inactive: -0.075	inactive: -0.004	inactive: 0.012	inactive: 0.115	–	–	inactive: -0.076	inactive: -0.009	inactive: 0.137	inactive: -0.013	–	inactive: 0.06	inactive: 0.163	inactive: 0.134	inactive: -0.017	inactive: 0.15	inactive: -0.06	–	inactive: -0.175
HEATR6 (UniProt Q6AI08)	inactive: -0.044	inactive: 0.002	inactive: 0.05	inactive: 0.038	inactive: -0.03	–	inactive: 0.012	inactive: -0.042	inactive: -0.043	inactive: -0.065	inactive: -0.024	–	inactive: -0.008	inactive: 0.043	inactive: 0.047	inactive: -0.014	inactive: -0.001	inactive: 0.002	inactive: -0.05	inactive: 0.015
GTPBP2 (UniProt Q9BX10)	inactive: -0.036	inactive: -0.075	inactive: 0	inactive: 0.05	inactive: -0.011	inactive: -0.086	inactive: -0.041	inactive: 0.029	inactive: 0.078	inactive: -0.203	inactive: 0.045	inactive: 0.108	inactive: -0.098	inactive: -0.104	inactive: -0.059	inactive: 0.025	inactive: -0.01	inactive: -0.083	inactive: 0.033	inactive: -0.136
HCCS (UniProt P53701)	inactive: 0.009	inactive: 0.004	inactive: 0.026	inactive: -0.012	inactive: -0.016	inactive: -0.051	inactive: -0.044	inactive: -0.053	inactive: -0.001	inactive: -0.063	inactive: -0.154	inactive: -0.053	inactive: -0.026	inactive: 0.004	inactive: 0.018	inactive: -0.029	inactive: 0.036	inactive: 0.067	inactive: -0.009	inactive: 0.062
HECTD3 (UniProt Q5T447)	inactive: 0.101	inactive: -0.121	inactive: -0.137	inactive: 0.092	inactive: 0.009	–	inactive: 0.01	inactive: 0.132	inactive: -0.047	inactive: -0.028	inactive: -0.008	–	inactive: -0.018	inactive: -0.018	inactive: -0.073	inactive: 0.018	inactive: -0.091	inactive: -0.075	inactive: 0.031	inactive: 0.057
HDLBP (UniProt Q00341)	inactive: 0.059	inactive: -0.157	inactive: -0.272	inactive: 0.421	inactive: -0.142	inactive: 0.208	inactive: 0.115	inactive: 0.074	inactive: 0.163	inactive: -0.277	inactive: 0.156	inactive: -0.046	inactive: -0.044	inactive: -0.143	inactive: 0	inactive: 0.012	inactive: -0.064	inactive: -0.103	inactive: 0.079	inactive: -0.165
HAUS1 (UniProt Q96CS2)	inactive: -0.061	inactive: -0.037	inactive: -0.071	inactive: 0.056	inactive: -0.009	inactive: -0.024	inactive: -0.015	inactive: 0.043	inactive: 0.009	inactive: -0.041	inactive: -0.17	inactive: 0	inactive: 0.003	inactive: -0.119	inactive: 0.083	inactive: 0.058	inactive: 0.047	inactive: -0.014	inactive: -0.006	inactive: -0.005
HEATR3 (UniProt Q7Z4Q2)	inactive: -0.001	inactive: -0.171	inactive: 0.094	inactive: 0.123	–	inactive: -0.377	–	inactive: 0.146	inactive: 0.011	inactive: -0.006	inactive: 0.058	active: 0.389	inactive: -0.045	inactive: -0.088	inactive: -0.073	inactive: -0.073	inactive: -0.008	inactive: 0.138	inactive: -0.011	inactive: -0.079

Two neighbouring records out of the list so far:
Target	log2 fold change [1]	log2 fold change [2]	log2 fold change [3]	log2 fold change [4]	log2 fold change [5]	log2 fold change [6]	log2 fold change [7]	log2 fold change [8]	log2 fold change [9]	log2 fold change [10]	log2 fold change [11]	log2 fold change [12]	log2 fold change [13]	log2 fold change [14]	log2 fold change [15]	log2 fold change [16]	log2 fold change [17]	log2 fold change [18]	log2 fold change [19]	log2 fold change [20]
GTPBP2 (UniProt Q9BX10)	inactive: -0.036	inactive: -0.075	inactive: 0	inactive: 0.05	inactive: -0.011	inactive: -0.086	inactive: -0.041	inactive: 0.029	inactive: 0.078	inactive: -0.203	inactive: 0.045	inactive: 0.108	inactive: -0.098	inactive: -0.104	inactive: -0.059	inactive: 0.025	inactive: -0.01	inactive: -0.083	inactive: 0.033	inactive: -0.136
HCCS (UniProt P53701)	inactive: 0.009	inactive: 0.004	inactive: 0.026	inactive: -0.012	inactive: -0.016	inactive: -0.051	inactive: -0.044	inactive: -0.053	inactive: -0.001	inactive: -0.063	inactive: -0.154	inactive: -0.053	inactive: -0.026	inactive: 0.004	inactive: 0.018	inactive: -0.029	inactive: 0.036	inactive: 0.067	inactive: -0.009	inactive: 0.062
